Assay results from article PMC4571087.

Protein sequences, listed by entry. Tags and fused reporters are not part of them.
UniProt P38682: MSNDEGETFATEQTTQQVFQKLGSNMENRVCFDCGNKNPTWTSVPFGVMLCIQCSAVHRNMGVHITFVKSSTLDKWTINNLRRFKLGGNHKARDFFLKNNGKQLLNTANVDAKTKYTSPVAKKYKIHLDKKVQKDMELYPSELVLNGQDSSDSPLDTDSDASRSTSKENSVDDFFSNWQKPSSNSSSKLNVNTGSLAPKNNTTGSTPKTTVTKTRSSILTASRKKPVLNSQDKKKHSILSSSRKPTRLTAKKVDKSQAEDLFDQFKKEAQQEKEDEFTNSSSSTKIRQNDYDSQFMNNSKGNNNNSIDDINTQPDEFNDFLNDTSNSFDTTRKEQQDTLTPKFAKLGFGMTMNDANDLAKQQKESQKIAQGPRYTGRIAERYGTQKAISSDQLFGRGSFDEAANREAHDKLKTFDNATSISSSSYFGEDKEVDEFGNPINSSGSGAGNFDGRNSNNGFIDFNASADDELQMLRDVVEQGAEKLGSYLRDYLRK

Biological target: Glo3-HBH (S. cerevisiae) (UniProt P38682)
Test: affinity purification with mass spectrometry; cells expressing Glo3-HBH fixed with 1% formaldehyde for 2 min at RT, quenched with glycine; tandem affinity purification by the HBH tag; eluted proteins digested (LysC, trypsin) and analysed by LC-MS/MS

- binding: binds
B1: C-5 sterol desaturase Erg3 (protein, UniProt P32353 1-365)
chain: MDLVLEVADHYVLDDLYAKVLPASLAANIPVKWQKLLGLNSGFSNSTILQETLNSKNAVKECRRFYGQVPFLFDMSTTSFASLLPRSSILREFLSLWVIVTIFGLLLYLFTASLSYVFVFDKSIFNHPRYLKNQMAMEIKLAVSAIPWMSMLTVPWFVMELNGHSKLYMKIDYENHGVRKLIIEYFTFIFFTDCGVYLAHRWLHWPRVYRALHKPHHKWLVCTPFASHSFHPVDGFLQSISYHIYPLILPLHKVSYLILFTFVNFWTVMIHDGQYLSNNPAVNGTACHTVHHLYFNYNYGQFTTLWDRLGGSYRRPDDSLFDPKLRDAKETWDAQVKEVEHFIKEVEGDDNDRIYENDPNTKKNN

These are yes or no findings as the source states them, for the method shown. Binding seen in cells or lysates may run through a third protein. These calls come from enrichment with a bait or labelling near it, and not all partners need be listed.
